Experimental data reported in patent US20210261642A1, “SOLUBILITY OF GLP-1 PEPTIDE” (Novo Nordisk A/S, priority 2017, published 2021).
Further values from the same series stand in other lists.

Experiment: Assay (I): Determination of Solubility (96-well plate, pH 3.0-11.0, organic solvent 0-70% w/w, UV absorption at 280 nm)
Assay type: physicochemical
Details: Method 1
Method: Assay (I): Determination of Solubility
96-Well Plate Preparation
96-well plates containing target peptide in a solid form were prepared in one of two ways:
Method 1 (evaporation): Addition of 100 μl stock solution of said peptide at a concentration of 4-6 mg/ml to each well of a 96-well half area plate (150 μl well size). Subsequently the solvent was evaporated by applying a vacuum until the solvent was completely removed.
Method 2 (precipitation): Addition of a certain volume of a stock solution of said peptide containing to each well of a 96-well half area plate followed by the addition of a certain volume of concentrated phosphoric acid to obtain a pH of 4.6 followed by addition of a certain volume of ethanol resulting in a final ethanol concentration of 20% v/v. Subsequently the plate was stored at 4° C. for 1 h and then centrifuged at 4,000 rpm for 20 min. Finally the supernatant was removed. The concentration of the stock solution was chosen in a way that the final amount of peptide after supernatant removal was >0.4 mg per well.
In both cases the stock solution was prepared by adding de-ionized water to a certain amount of powder of said peptide followed by a stepwise addition of small amounts of a concentrated sodium hydroxide solution until said peptide was completely in solution.
To determine solubility of a target peptide at different pH and organic solvent concentrations, two different buffer systems were used in independent experiments to cover the whole range from pH 3.0 to pH 11.0. Buffer system 1 covers pH 3.0-7.5 and buffer system 2 covers pH 7.5-11.0. For each buffer system 96 different solvent compositions were premixed in the following way: • 1. A low pH buffer (adjusted to either pH 3.0 or pH 7.5) and a high pH buffer (adjusted to either pH 7.5 or pH 11.0) were mixed at 8 different ratios to obtain values between pH 3.0 and pH 7.5 or pH 7.5 and pH 11.0, respectively. The total volume after mixing was 300 μl. • 2. 12 different amounts of organic solvent were then added to these buffers to obtain organic solvent (e.g. ethanol) concentrations between 0 and 70% w/w. • 3. Water was then added to obtain a total weight of 1.0 g of solvent in each well.
After preparing the 96 different solvent systems, 100 μl of each system was transferred to the 96-well plate containing the solid form of the target peptide (prepared as described in the section “96-well plate preparation”). The plate was then stored at a given temperature (between 5° C. and 70° C.) for a given time on a rotating shaker set to 400 rpm. At regular time intervals the plate was centrifuged (4,000 rpm for 10 min) and a 10 μl sample was taken from each well. The samples were then analysed by UV absorption at 280 nm for peptide quantification. Peptide concentration results are given as UV absorption at 280 nm of the sample subtracted UV absorption at 280 nm of a well comprising 10 μl water.
The buffers used were as follows: • Buffer system 1 (for the pH range from pH 3.0-7.5)
• Buffer system 2 (for the pH ranae from pH 7.5-11.0)
Solubility of liraglutide was determined using Assay (I) described herein. Liraglutide was prepared using Method 1 (evaporation) or Method 2 (precipitation) as described in subsection “96-well plate preparation”.

CCCCCCCCCCCCCCCC(=O)N[C@@H](CCC(=O)NCCCC[C@H](NC(=O)[C@H](C)NC(=O)[C@H](C)NC(=O)[C@H](CCC(N)=O)NC(=O)CNC(=O)[C@H](CCC(=O)O)NC(=O)[C@H](CC(C)C)NC(=O)[C@H](Cc1ccc(O)cc1)NC(=O)[C@H](CO)NC(=O)[C@H](CO)NC(=O)[C@@H](NC(=O)[C@H](CC(=O)O)NC(=O)[C@H](CO)NC(=O)[C@@H](NC(=O)[C@H](Cc1ccccc1)NC(=O)[C@@H](NC(=O)CNC(=O)[C@H](CCC(=O)O)NC(=O)[C@H](C)NC(=O)[C@@H](N)Cc1cnc[nH]1)[C@@H](C)O)[C@@H](C)O)C(C)C)C(=O)N[C@@H](CCC(=O)O)C(=O)N[C@@H](Cc1ccccc1)C(=O)N[C@H](C(=O)N[C@@H](C)C(=O)N[C@@H](Cc1c[nH]c2ccccc12)C(=O)N[C@@H](CC(C)C)C(=O)N[C@H](C(=O)N[C@@H](CCCNC(=N)N)C(=O)NCC(=O)N[C@@H](CCCNC(=N)N)C(=O)NCC(=O)O)C(C)C)[C@@H](C)CC)C(=O)O [liraglutide, Arg34,Lys26-(N-epsilon-(gamma-L-glutamyl(N-alfa-hexadecanoyl)))-GLP-1(7-37)]
0.7 mg/mL: Peptide concentration after 5 min (MeCN 0.0% w/w, pH 11.0, RT) | Peptide concentration after 5 min (MeCN 6.4% w/w, pH 5.6, 70° C.)
2.0 mg/mL: Peptide concentration after 5 min (MeCN 0.0% w/w, pH 11.0, 70° C.)
0.1 mg/mL: Peptide concentration after 180 min (MeCN 6.4% w/w, pH 3.0, RT) | Peptide concentration after 5 min (MeCN 6.4% w/w, pH 3.6, RT) | Peptide concentration after 180 min (MeCN 6.4% w/w, pH 3.6, RT) | Peptide concentration after 5 min (MeCN 6.4% w/w, pH 4.3, 70° C.) | Peptide concentration after 180 min (MeCN 6.4% w/w, pH 4.3, 70° C.) | Peptide concentration after 5 min (MeCN 6.4% w/w, pH 4.3, RT) | Peptide concentration after 180 min (MeCN 6.4% w/w, pH 4.3, RT) | Peptide concentration after 24 h (MeCN 6.4% w/w, pH 4.3, RT) | Peptide concentration after 5 min (MeCN 6.4% w/w, pH 4.9, 5° C.) | Peptide concentration after 180 min (MeCN 6.4% w/w, pH 4.9, 5° C.) | Peptide concentration after 180 min (MeCN 6.4% w/w, pH 4.9, 70° C.) | Peptide concentration after 5 min (MeCN 6.4% w/w, pH 4.9, RT) | Peptide concentration after 180 min (MeCN 6.4% w/w, pH 4.9, RT) | Peptide concentration after 24 h (MeCN 6.4% w/w, pH 4.9, RT) | Peptide concentration after 5 min (MeCN 6.4% w/w, pH 5.6, 5° C.) | Peptide concentration after 180 min (MeCN 6.4% w/w, pH 5.6, 5° C.) | Peptide concentration after 24 h (MeCN 6.4% w/w, pH 5.6, 5° C.) | Peptide concentration after 5 min (MeCN 6.4% w/w, pH 5.6, RT) | Peptide concentration after 180 min (MeCN 6.4% w/w, pH 5.6, RT) | Peptide concentration after 24 h (MeCN 6.4% w/w, pH 5.6, RT) | Peptide concentration after 5 min (MeCN 6.4% w/w, pH 6.2, 5° C.)
1.1 mg/mL: Peptide concentration after 5 min (MeCN 6.4% w/w, pH 7.5, 5° C.) | Peptide concentration after 5 min (MeCN 6.4% w/w, pH 7.5, RT)
0.8 mg/mL: Peptide concentration after 5 min (MeCN 0.0% w/w, pH 10.5, RT) | Peptide concentration after 5 min (MeCN 6.4% w/w, pH 6.9, 5° C.) | Peptide concentration after 5 min (MeCN 6.4% w/w, pH 11.0, RT)
3.0 mg/mL: Peptide concentration after 5 min (MeCN 6.4% w/w, pH 6.9, 70° C.)
3.3 mg/mL: Peptide concentration after 5 min (MeCN 6.4% w/w, pH 10.5, 70° C.)
2.9 mg/mL: Peptide concentration after 180 min (MeCN 0.0% w/w, pH 10.5, RT) | Peptide concentration after 5 min (MeCN 6.4% w/w, pH 9.0, 70° C.)
0.2 mg/mL: Peptide concentration after 5 min (MeCN 6.4% w/w, pH 3.0, RT) | Peptide concentration after 24 h (MeCN 6.4% w/w, pH 4.9, 5° C.) | Peptide concentration after 180 min (MeCN 6.4% w/w, pH 6.2, 5° C.) | Peptide concentration after 24 h (MeCN 6.4% w/w, pH 6.2, 5° C.) | Peptide concentration after 5 min (MeCN 12.7% w/w, pH 3.0, 5° C.)
2.4 mg/mL: Peptide concentration after 5 min (MeCN 6.4% w/w, pH 6.2, 70° C.) | Peptide concentration after 180 min (MeCN 6.4% w/w, pH 9.5, RT)
0.3 mg/mL: Peptide concentration after 180 min (MeCN 6.4% w/w, pH 3.6, 70° C.) | Peptide concentration after 5 min (MeCN 6.4% w/w, pH 4.9, 70° C.)
0.9 mg/mL: Peptide concentration after 180 min (MeCN 6.4% w/w, pH 6.2, RT) | Peptide concentration after 5 min (MeCN 6.4% w/w, pH 6.9, RT) | Peptide concentration after 5 min (MeCN 6.4% w/w, pH 8.5, RT) | Peptide concentration after 5 min (MeCN 6.4% w/w, pH 9.0, RT) | Peptide concentration after 5 min (MeCN 6.4% w/w, pH 9.5, RT) | Peptide concentration after 5 min (MeCN 6.4% w/w, pH 10.5, RT)
1.4 mg/mL: Peptide concentration after 24 h (MeCN 6.4% w/w, pH 6.2, RT)
2.5 mg/mL: Peptide concentration after 5 min (MeCN 6.4% w/w, pH 7.5, 70° C.) | Peptide concentration after 5 min (MeCN 6.4% w/w, pH 8.5, 70° C.) | Peptide concentration after 180 min (MeCN 6.4% w/w, pH 9.0, RT) | Peptide concentration after 5 min (MeCN 6.4% w/w, pH 11.0, 70° C.)
2.7 mg/mL: Peptide concentration after 180 min (MeCN 6.4% w/w, pH 6.9, RT) | Peptide concentration after 180 min (MeCN 6.4% w/w, pH 8.5, RT)
2.3 mg/mL: Peptide concentration after 5 min (MeCN 6.4% w/w, pH 8.0, 70° C.) | Peptide concentration after 180 min (MeCN 6.4% w/w, pH 11.0, RT)
1.9 mg/mL: Peptide concentration after 180 min (MeCN 6.4% w/w, pH 6.9, 5° C.)
3.2 mg/mL: Peptide concentration after 5 min (MeCN 6.4% w/w, pH 9.5, 70° C.)
2.2 mg/mL: Peptide concentration after 180 min (MeCN 0.0% w/w, pH 11.0, RT) | Peptide concentration after 5 min (MeCN 6.4% w/w, pH 3.0, 70° C.) | Peptide concentration after 180 min (MeCN 6.4% w/w, pH 8.0, RT)
0.4 mg/mL: Peptide concentration after 5 min (MeCN 6.4% w/w, pH 3.6, 70° C.) | Peptide concentration after 5 min (MeCN 6.4% w/w, pH 6.2, RT)
3.1 mg/mL: Peptide concentration after 180 min (MeCN 6.4% w/w, pH 7.5, RT) | Peptide concentration after 5 min (MeCN 6.4% w/w, pH 10.0, 70° C.) | Peptide concentration after 180 min (MeCN 6.4% w/w, pH 10.0, RT)
>4.0 mg/mL: Peptide concentration after 180 min (MeCN 0.0% w/w, pH 10.5, 70° C.) | Peptide concentration after 24 h (MeCN 0.0% w/w, pH 10.5, RT) | Peptide concentration after 180 min (MeCN 0.0% w/w, pH 11.0, 70° C.) | Peptide concentration after 24 h (MeCN 0.0% w/w, pH 11.0, RT) | Peptide concentration after 180 min (MeCN 6.4% w/w, pH 3.0, 70° C.) | Peptide concentration after 180 min (MeCN 6.4% w/w, pH 6.2, 70° C.) | Peptide concentration after 24 h (MeCN 6.4% w/w, pH 6.9, 5° C.) | Peptide concentration after 180 min (MeCN 6.4% w/w, pH 6.9, 70° C.) | Peptide concentration after 24 h (MeCN 6.4% w/w, pH 6.9, RT) | Peptide concentration after 24 h (MeCN 6.4% w/w, pH 7.5, 5° C.) | Peptide concentration after 180 min (MeCN 6.4% w/w, pH 7.5, 70° C.) | Peptide concentration after 24 h (MeCN 6.4% w/w, pH 7.5, RT) | Peptide concentration after 180 min (MeCN 6.4% w/w, pH 8.0, 70° C.) | Peptide concentration after 24 h (MeCN 6.4% w/w, pH 8.0, RT) | Peptide concentration after 180 min (MeCN 6.4% w/w, pH 8.5, 70° C.) | Peptide concentration after 24 h (MeCN 6.4% w/w, pH 8.5, RT) | Peptide concentration after 180 min (MeCN 6.4% w/w, pH 9.0, 70° C.) | Peptide concentration after 24 h (MeCN 6.4% w/w, pH 9.0, RT) | Peptide concentration after 180 min (MeCN 6.4% w/w, pH 9.5, 70° C.) | Peptide concentration after 24 h (MeCN 6.4% w/w, pH 9.5, RT) | Peptide concentration after 180 min (MeCN 6.4% w/w, pH 10.0, 70° C.) | Peptide concentration after 24 h (MeCN 6.4% w/w, pH 10.0, RT) | Peptide concentration after 180 min (MeCN 6.4% w/w, pH 10.5, 70° C.) | Peptide concentration after 24 h (MeCN 6.4% w/w, pH 10.5, RT) | Peptide concentration after 180 min (MeCN 6.4% w/w, pH 11.0, 70° C.) | Peptide concentration after 24 h (MeCN 6.4% w/w, pH 11.0, RT)
2.8 mg/mL: Peptide concentration after 180 min (MeCN 6.4% w/w, pH 7.5, 5° C.) | Peptide concentration after 180 min (MeCN 6.4% w/w, pH 10.5, RT)
2.6 mg/mL: Peptide concentration after 5 min (MeCN 0.0% w/w, pH 10.5, 70° C.)
1.0 mg/mL: Peptide concentration after 180 min (MeCN 6.4% w/w, pH 5.6, 70° C.) | Peptide concentration after 5 min (MeCN 6.4% w/w, pH 8.0, RT) | Peptide concentration after 5 min (MeCN 6.4% w/w, pH 10.0, RT)
